In paper PMC9132907:
These are yes or no findings as the source states them, for the method shown. Binding seen in cells or lysates may run through a third protein. Some results given as binding are weak or reduced against the parent protein; the word gives no strength.

By UniProt entry, the sequences of proteins in these tests, tags left out.
UniProt O15205: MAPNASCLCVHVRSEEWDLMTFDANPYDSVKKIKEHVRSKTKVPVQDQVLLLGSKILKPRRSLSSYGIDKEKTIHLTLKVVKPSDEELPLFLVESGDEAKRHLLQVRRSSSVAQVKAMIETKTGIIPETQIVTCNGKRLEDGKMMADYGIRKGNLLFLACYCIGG

How the values were obtained:
[1] = molecular target: T1, Forkhead box M1 (FOXM1), endogenous (human (endogenous in PANC-1 and BxPC-3)) (UniProt Q08050); assay: co-IP; PANC-1 and BxPC-3 cells transfected with different amounts of HA-FAT10 plasmid; FAT10 or Ub bound to FOXM1 detected by western blot
T1 sequence: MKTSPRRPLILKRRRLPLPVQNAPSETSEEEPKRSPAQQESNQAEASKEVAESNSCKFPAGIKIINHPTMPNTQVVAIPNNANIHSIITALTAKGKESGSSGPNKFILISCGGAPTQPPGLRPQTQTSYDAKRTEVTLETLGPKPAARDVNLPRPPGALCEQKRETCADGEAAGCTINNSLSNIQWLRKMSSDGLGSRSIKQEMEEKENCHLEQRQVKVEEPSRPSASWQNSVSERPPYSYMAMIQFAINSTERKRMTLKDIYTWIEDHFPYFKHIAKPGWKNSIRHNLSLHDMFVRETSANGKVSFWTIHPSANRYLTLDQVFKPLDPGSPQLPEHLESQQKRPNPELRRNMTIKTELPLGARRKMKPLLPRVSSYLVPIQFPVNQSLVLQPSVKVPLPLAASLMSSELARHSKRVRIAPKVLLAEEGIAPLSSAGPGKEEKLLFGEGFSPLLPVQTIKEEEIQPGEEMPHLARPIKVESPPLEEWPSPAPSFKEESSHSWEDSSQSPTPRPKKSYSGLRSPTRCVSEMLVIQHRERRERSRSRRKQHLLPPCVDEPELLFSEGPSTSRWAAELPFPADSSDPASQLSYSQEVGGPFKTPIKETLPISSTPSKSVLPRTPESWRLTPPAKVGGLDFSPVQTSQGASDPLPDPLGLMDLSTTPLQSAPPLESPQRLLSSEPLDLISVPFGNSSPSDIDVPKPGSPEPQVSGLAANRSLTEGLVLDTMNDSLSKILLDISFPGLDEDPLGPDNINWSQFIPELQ

[2] = molecular target: T1, Forkhead box M1 (FOXM1), endogenous (human (endogenous in PANC-1 and BxPC-3)); assay: co-IP; endogenous proteins in RIPA lysates of PANC-1 and BxPC-3 cells, protein A/G agarose, 4 °C, western blot; also after MG132 (10 μM) with shFAT10 or HA-FAT10 transfected

Row | Substance | binding [1] | binding [2]
1 | HA-FAT10 (from UniProt O15205 1-165) | binds | 
2 | Human leukocyte antigen F-associated transcript10 (FAT10), endogenous (from UniProt O15205 1-165) |  | binds
